Laboratory results published in PubChem BioAssay AID2549 (National Center for Advancing Translational Sciences (NCATS), 2010).
Among all 240,000 compounds or so, about 1,300 (0.54%) were called active. This list was built around the results that the source calls inconclusive (neither active nor inactive); the mix of calls is not that of the screen. Calls follow the shape of the dose curve; as a rule, active = well fitted inhibition curve with a large enough effect; inconclusive = small, poorly fitted or top-dose-only effect; inactive = flat fitted curve, though single readings scatter. Where the call is inconclusive, the potency comes from a doubtful curve fit. Where a SMILES comes first, the peptide text is derived from it. [ ]: non-standard residue; d: D form. The star is where a group is joined. Phe(4-Me) = Cc1ccc(C[CH](N)C(=O)O)cc1; Bz = O=C(c1ccccc1)*

Protein sequences, listed by entry. Tags and fused reporters are not part of them. Lines headed by an entry give the natural chain unless they say otherwise; changes in a name come on top.
UniProt P46063: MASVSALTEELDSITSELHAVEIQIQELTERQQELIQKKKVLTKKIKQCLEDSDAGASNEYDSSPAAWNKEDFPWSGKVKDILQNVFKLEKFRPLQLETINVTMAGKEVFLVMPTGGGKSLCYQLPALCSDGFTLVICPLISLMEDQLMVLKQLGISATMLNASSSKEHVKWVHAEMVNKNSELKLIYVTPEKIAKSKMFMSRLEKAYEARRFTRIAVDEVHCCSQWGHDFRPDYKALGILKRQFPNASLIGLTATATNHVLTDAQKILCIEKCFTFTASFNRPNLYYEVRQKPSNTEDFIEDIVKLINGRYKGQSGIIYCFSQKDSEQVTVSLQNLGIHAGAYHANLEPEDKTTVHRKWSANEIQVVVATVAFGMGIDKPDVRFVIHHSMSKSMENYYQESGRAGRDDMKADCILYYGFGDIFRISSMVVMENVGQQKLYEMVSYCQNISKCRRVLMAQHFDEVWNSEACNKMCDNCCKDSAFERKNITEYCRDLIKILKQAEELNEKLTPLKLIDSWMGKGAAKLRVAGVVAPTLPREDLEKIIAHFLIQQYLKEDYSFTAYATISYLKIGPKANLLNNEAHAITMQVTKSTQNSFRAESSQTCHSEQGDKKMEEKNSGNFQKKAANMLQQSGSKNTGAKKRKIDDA

Target: ATP-dependent DNA helicase Q1 (Homo sapiens) (UniProt P46063)
Assay: qHTS Assay for Inhibitors of RecQ-Like Dna Helicase 1 (RECQ1); also: nearly all actives have a fitted effect of over 30% in size
Conditions: RECQ1 DNA unwinding, red fluorescence kinetic read; series mostly up to 57.3 µM
In short: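 RECQ1T1 50 nM; forked duplex (20 bp + 30-nt ss tails) 200 nM, ATP 2 mM final; pH 8.0, 2 mM MgCl2, 2.5 ug/ml poly(dI-dC); 15 min compound preincubation; discontinuous kinetic read over 2 h at RT.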
Potency is read from the fitted curve at half-maximal effect.

Structure (SMILES)	Potency
Cc1ccc(CC(NC(=O)c2ccccc2)C(=O)N2CCCC2C(=O)O)cc1 (centres undefined) (Bz-[Phe(4-Me)]-Pro-OH; configuration not given here)	inconclusive: 3.98 µM [inhibitor, single point]
CCCCCn1c(CN2CCN(CCO)CC2)nc2c1c(=O)n(C)c(=O)n2C	inconclusive: 3.16 µM [inhibitor, full curve, poor fit]
Cc1ccccc1NC(=O)C(=Cc1ccc(C(=O)O)cc1)C(=O)Nc1ccccc1C	inconclusive: 31.6 µM [inhibitor, partial curve]
CCCCCCCCCCCCCC[C@@H](O)[C@@H](O)[C@H](CO)NC(C)=O	inactive
C[N+]1(C)CC[C@@H](OC(=O)[C@@](O)(c2ccccc2)C2CCCC2)C1	inactive
O=C(Nc1cc(Cl)ccc1Cl)c1noc2c1CCCC2	inactive
O=C(NNc1c2ccccc2nc2ccccc12)c1cccc(O)c1	inconclusive: 25.1 µM [inhibitor, single point]
COC(=O)CCC(=O)OC1(C)C(=O)C=C2C=C(C3CC3)N(Cc3ccccc3)C=C2C1=O (centres undefined)	inconclusive: 3.55 µM [inhibitor, single point]
O=C1NN(c2ccccc2)C(=O)/C1=C/c1ccc(Sc2ccc(Cl)cc2)o1	inconclusive: 31.6 µM [inhibitor, single point]
O=C1CSC(=S)N1/N=C/C=C/c1ccccc1	inconclusive: 35.5 µM [inhibitor, single point]
CC1(C)Cc2c(sc3[nH]c(=S)n(Cc4ccco4)c(=O)c23)CO1	inconclusive: 31.6 µM [inhibitor, single point]
CN(C)c1ccc(/C=C/C=C2/SC(=S)N(c3ccccc3)C2=O)cc1	active: 1.41 µM
CNc1cccccc1=S	inconclusive: 3.98 µM [inhibitor, full curve]
COc1ccc(/C(N)=N/O)cc1O	inconclusive: 0.891 µM [inhibitor, full curve, poor fit]
Cc1cc(N2CCN(C)CC2)nc2ccc(NC(=S)N3CCCCC3)cc12	inconclusive: 22.4 µM [inhibitor, partial curve, poor fit]
C[C@H](NS(=O)(=O)c1ccc(Cl)c(Cl)c1)C(=O)OCc1cc(=O)n2cc(Br)ccc2n1	inconclusive: 31.6 µM [inhibitor, single point]
CCOc1ccccc1NC(=O)CN(C)S(=O)(=O)c1cnc[nH]1	active: 15.8 µM
Cc1c(C(=O)N/N=C/c2cccs2)nc2ccccn12	inactive
Cc1ccc(NC(=S)NC(=O)/C=C/c2ccco2)c(O)c1	inconclusive: 35.5 µM [inhibitor, single point]

In a second layout: entries from further up.

| Structure (SMILES) | Potency |
| --- | --- |
| C[N+]1(C)CC[C@@H](OC(=O)[C@@](O)(c2ccccc2)C2CCCC2)C1 | inactive |
| O=C(Nc1cc(Cl)ccc1Cl)c1noc2c1CCCC2 | inactive |
